Data taken from ChEMBL document CHEMBL3988442, “University of Dundee, Small-Polar-MMV Screening Library” (2021).

A: 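Whole-parasite assay of Trypanosoma brucei over 72 hours; the read-out is not stated. Tested at 30 µM. The record gives no direction; compounds that gave an IC50 in retests scored well above the rest, so higher reads as stronger inhibition. Values scatter widely below zero; nearly all retest evidence comes from the higher of the two concentrations used. Size under these conditions: about 64,000 compounds, about 940 of them at 50% or above in at least one test.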
B: 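Assay of Toxoplasma gondii numbers, read through their beta-galactosidase reporter with a colour substrate. Tested at 10 µM. The record gives no direction; the compounds picked for IC50 retests had high values, so higher reads as fewer parasites. Size under these conditions: about 67,000 compounds, about 260 of them at 50% or above in at least one test.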

Each number is a percent effect as filed.
How 0% and 100% were set is not recorded. Most values in the screen are low, and negative values occur.
This is an unselected part of the compounds tested.
A dash means the value is not listed here; it may have been measured.

Compound,A,B
CC(O)(CNC(=O)NCCc1ccc2c(c1)CCO2)c1ccccc1 (stereo not shown),7.001%,12.7%
Cc1csc(NC(=O)CN(C)CC2CCCN2c2cccnn2)n1 (stereo not shown),-25.31%,11.68%
O=C(O)C(F)(F)F.O=C(c1cscn1)N1CC[C@]2(C[C@@H](OCCN3CCCC3)CO2)C1,5.929%,-0.4992%
O=C(c1ccc(Br)o1)N1CCN(Cc2ccc(OC(F)(F)F)cc2)CC1,-65.95%,0.3284%
Cc1ccc(NC2CCN(C(=O)c3cc[nH]n3)CC2)nn1,-24.03%,-5.928%
[H][C@@]12CCN(S(=O)(=O)Cc3ccc(C)cc3)[C@]1([H])CCC(=O)N2CC,-26.67%,-39.05%
[H][C@@]12OCCN(c3ncccn3)[C@@]1([H])CC[C@H]2OCCN1CCOCC1,-50%,0.7559%
CCS(=O)(=O)NCC1CCN(c2cnccn2)CC1,13.85%,-16.84%
O=C(CN1CCCNC1=O)N(Cc1ccccc1)CC(F)F,-26.32%,-16.22%
CN(Cc1cccc(F)c1)C(=O)CN1CCOC(Cn2cncn2)C1 (stereo not shown),-,-28.44%
COc1ccc(COCC(=O)N2CCC(c3nncn3C)CC2)cc1,-22.55%,0.8086%
CCCc1n[nH]c(C2CN(C(=O)Cc3ccc(C)nc3)CCO2)n1 (stereo not shown),-33.1%,11.63%
CN(c1ccc(C(N)=O)nn1)C1CCC1,-1.825%,-10.41%
O=C(O)C(F)(F)F.[H][C@]12CCN(CCOC)[C@@]1([H])CC[C@H](COCC(=O)N1CCCC1)O2,-1.594%,24.97%
O=C(c1ccc2nncn2c1)N1CCCCC1Cn1cccn1 (stereo not shown),-7.095%,-13.19%
Cn1cc(C2CCCN2C(=O)Cc2coc(-c3ccccc3)n2)cn1 (stereo not shown),-19.03%,13.87%
CC(c1ccc(Cl)cc1)N1CCN(CCCS(C)(=O)=O)CC1 (stereo not shown),-35.08%,-29.75%
Cc1cc(C(=O)NCc2cccnc2N2CCc3ccccc3C2)[nH]n1,3.66%,-5.368%
O=c1[nH]c(-c2ccccn2)nc2c1CCN(S(=O)(=O)N1CCCC1)C2,16.13%,11.1%
O=C(Cc1cn2ccsc2n1)N1CCOCC(O)(CN2CCCC2)C1 (stereo not shown),-1.806%,5.865%
Cc1nc(-c2ccc(CO)cc2)cc(C2CCNCC2)n1.Cl,-17.1%,-12.32%
[H][C@@]12CNC[C@]1([H])[C@H]2C(=O)N1CCN(c2ccc(OC)cc2)C(C)(C)C1,-58.92%,-29.09%
CN1CCN([C@H]2CCN(C(=O)c3nn(C)cc3Cl)C[C@H]2CCCO)CC1,-48.62%,16.63%
CCCn1ccnc1CN1CCCC(O)(CN(C)C)CC1 (stereo not shown),-11.22%,6.17%
CN1CCC(N2Cc3nc(N)ncc3C2=O)CC1,-14.03%,2.492%
C[C@@H]1CN(C2CCCCC2)CC[C@@]1(O)C1CCOCC1,-20.03%,-
Cl.Cl.OC(CN1CCN(Cc2cc(F)ccc2F)CC1)C1CC1 (stereo not shown),18.13%,-0.04525%
CC(C)c1nnc2n1CCN(CCS(=O)(=O)c1ccccc1)C2,-0.02517%,-0.8809%
COCC1CC2(CCN(C(=O)c3ccc(C)nc3)CC2)CO1.O=C(O)C(F)(F)F (stereo not shown),-109%,4%
COc1ccc(C2=C(C)C(N3CCc4ccccc43)=NS2(=O)=O)cc1,-3.584%,-2.882%
CCN(C(=O)c1cccc2c1OCO2)c1ccccc1,-25.66%,-7.186%
Cn1nccc1CCC(=O)N1CCC(c2cnccn2)CC1,13.77%,-11.75%
N#CCCCOc1cccnc1NC(=O)CCC1CCCC1,-3.116%,6.316%
O=C(O)c1csc(S(=O)(=O)Nc2cccc(OCC(F)(F)F)c2)c1,-44.85%,-1.235%
O=S1(=O)NC(c2ccnc(N3CCOCC3)n2)=Nc2ccccc21,13.36%,0.3305%
Cc1ccn(-c2ccc(C(=O)N3CCCC(C(N)=O)C3)cc2)n1 (stereo not shown),-53.63%,-
COCC(=O)N1CCc2ncc(Cn3cncn3)n2CC1,-147.1%,1.428%
O=C(O)c1c(-c2ccncc2)ncc2c1CCN(Cc1ccco1)C2,-25.37%,3.493%
CCOC(=O)CNC(=O)N1CCOC(CCc2ccccc2)C1 (stereo not shown),-38.31%,0.8653%
CC(=O)N1CCC[C@@H](NCc2c[nH]c3ccccc23)[C@@H]1c1ccc(C)s1.Cl,-17.97%,17.18%
O=C(Nc1cnn(COc2ccc(F)cc2Cl)c1)C1CC1,-,8.977%
COCC(=O)N1CCCCC1c1ccnc(Nc2cnccn2)n1 (stereo not shown),13.49%,-13.54%
CCc1ccc(C(=O)O)cc1S(=O)(=O)Nc1ccc(F)c(C#N)c1,2.682%,2.7%
CN1CCN(C(=O)c2csnn2)c2ccccc21,-51.05%,-14.21%
Cc1cc(NCCNc2cccnc2)nc(N)n1,-82.42%,-0.954%
CC(C)NC1CCCc2nc(-c3ccccc3)ncc21 (stereo not shown),-7.027%,3.121%
Cc1cc2[nH]c(=O)oc2cc1S(=O)(=O)N1CCC(N2CCCC2=O)CC1,-67.37%,13.34%
CS(=O)(=O)NCc1cc2n(n1)CCCN(Cc1cccc(C#N)c1)C2,35.64%,-4.35%
CC(c1nc(C2CC2)no1)N1CCC(NS(=O)(=O)c2cccs2)CC1 (stereo not shown),-4.522%,-16.25%
O=S(=O)(NCCC(O)c1cccs1)c1ccccc1Cl (stereo not shown),17.89%,-3.218%
CN(C)S(=O)(=O)NCc1cccnc1Oc1ccc(F)c(F)c1,8.096%,-2.478%
O=C(c1ccc2occc2c1)N1CCC(C(=O)O)(n2cccn2)CC1,-14.92%,9.251%
Cc1ccc(CCNC(=O)NCc2cccc(OC(F)F)c2)cn1,-107.3%,0.7572%
O=C1COc2c(cccc2C(=O)N2CCCC(n3cccn3)C2)N1 (stereo not shown),-41.37%,34.04%
N#Cc1cccnc1N1CCCN(C(=O)CCc2nccs2)CC1,0.2265%,-11.54%
CCN(C(=O)CN1CCCC1Cc1ccccc1)c1ccccc1 (stereo not shown),48.11%,-1.233%
CNC(=O)c1ccc(CN2CCN(C3=NCC(C)(C)S3)CC2)cc1,-37.82%,-
[H][C@]12CCN(c3nc(CO)cs3)C[C@]1(COC)CC[C@@H](N1CCOCC1)C2,-31.88%,-18.67%
CN(C)C(=O)c1ccc(CNc2c(Cl)cccc2C#N)cc1,24.89%,-5.204%
CC(=O)c1cccc(NC(=O)Cn2nc(-c3cccs3)oc2=O)c1,5.318%,-11.82%
CC(=O)N1CCC(Cc2ccc(-c3ccnn3C)nc2)CC1,-2.317%,-14.43%
CC(O)(CNC(=O)NCc1cccc(-n2cncn2)c1)c1ccco1 (stereo not shown),-55.45%,5.391%
COCCN(Cc1ccccn1)C(=O)CC1OCCc2sccc21 (stereo not shown),-,-8.449%
COc1ccc(-c2noc(C(CC(C)C)N3CCCCC3=O)n2)cn1 (stereo not shown),-,-11.45%
CCC[C@H]1CN(S(=O)(=O)c2cc(C)ccc2C)C[C@@H]1N,8.458%,-
CCc1cnc(CNc2ccc(C(=O)N3CCCC(C)C3)cc2C)o1 (stereo not shown),24.86%,-0.9529%
Cc1n[nH]c(C)c1NC(=O)CN1CCc2c(nc(C3CC3)n2C)C1,-64.93%,0.7411%
Cc1n[nH]c(C)c1C1COCCN1C(=O)Cc1cccc(F)c1 (stereo not shown),21.59%,-0.6568%
O=C(c1ccon1)N1CCc2ncnc(NCc3ccccn3)c2CC1,-71.64%,4.11%
[H][C@@]12CCN(Cc3ccccc3)C[C@]1([H])CCN(c1ccccc1)C(=O)C2,-33.87%,-4.659%
O=C(O)CSc1nnc(-c2cn[nH]c2)n1-c1ccccc1C(F)(F)F,-6.946%,-5.296%
Cc1cnccc1CN1C[C@@H](O)[C@H](Oc2ccccc2)C1,-5.11%,-4.805%
Cc1cccc2ncnc(N3CCOC(C)C3)c12 (stereo not shown),-13.19%,1.654%
CC(NC(=O)CCCOc1ccccc1Cl)c1ccncc1 (stereo not shown),-58.73%,-39.74%
CCOc1ncccc1CN1Cc2ncccc2C1=O,-8.636%,-3.581%
CC(C)(C)c1n[nH]c(C2CN(C(=O)c3cc(Cl)c[nH]3)CCO2)n1 (stereo not shown),20.66%,2.765%
CC(C)COCc1cncc2c1CCN(C(=O)c1cscn1)C2.O=C(O)C(F)(F)F,1.89%,11.78%
Cc1cc(C)n(C2CN(CC(=O)NCc3ccccn3)C2)n1,-34.57%,12.2%